From ChEMBL document CHEMBL3988442, “University of Dundee, Small-Polar-MMV Screening Library” (2021).

Chains of the proteins cited; added tags and fusions are not shown.
UniProt E9BF75, entry or part of it: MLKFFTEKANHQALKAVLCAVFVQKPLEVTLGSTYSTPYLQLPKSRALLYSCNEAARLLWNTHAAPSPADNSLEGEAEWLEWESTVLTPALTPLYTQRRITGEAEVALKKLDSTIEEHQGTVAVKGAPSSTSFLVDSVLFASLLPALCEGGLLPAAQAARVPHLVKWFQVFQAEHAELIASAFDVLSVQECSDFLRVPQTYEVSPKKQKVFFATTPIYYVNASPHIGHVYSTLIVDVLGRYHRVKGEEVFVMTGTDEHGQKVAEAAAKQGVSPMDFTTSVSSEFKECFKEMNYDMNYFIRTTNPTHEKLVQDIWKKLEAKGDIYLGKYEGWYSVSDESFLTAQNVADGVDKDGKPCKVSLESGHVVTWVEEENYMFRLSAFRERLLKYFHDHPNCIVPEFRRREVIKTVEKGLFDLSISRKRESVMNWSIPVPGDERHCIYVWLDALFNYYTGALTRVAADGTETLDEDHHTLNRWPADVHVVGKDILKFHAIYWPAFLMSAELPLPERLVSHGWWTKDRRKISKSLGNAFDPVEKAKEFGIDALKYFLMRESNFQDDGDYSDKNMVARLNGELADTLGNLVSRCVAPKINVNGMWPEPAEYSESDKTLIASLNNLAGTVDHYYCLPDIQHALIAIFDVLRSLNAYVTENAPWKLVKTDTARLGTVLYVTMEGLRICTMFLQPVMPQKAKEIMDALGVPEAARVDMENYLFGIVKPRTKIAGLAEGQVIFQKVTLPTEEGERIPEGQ

Results are percentages, as filed.
The controls that fix the scale are not given in the record; negative values are as filed.
Compounds were drawn at random from those tested, without regard to their results.
A dash means the value is not listed here; it may have been measured.

LdMetRS: 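Primary screen of methionyl-tRNA synthetase; the read-out is not stated. Target: Methionyl-tRNA synthetase (putative), Leishmania donovani (UniProt E9BF75). The test concentration is not given. The values are filed as inhibition. Of about 68,000 compounds tested this way, about 24 (0.035%) reached 50% or more in at least one test.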
Mtb heat-shock: 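Assay on Mycobacterium tuberculosis, filed only as a heat shock assay from Cornell; the read-out is not stated. The concentration is filed as 10 mM, unlikely as a test dose, so the dose is not known. Direction is inferred from retests: higher values go with stronger inhibition. Of about 69,000 compounds tested this way, about 930 (1.4%) reached 50% or more in at least one test.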

Compound	LdMetRS	Mtb heat-shock
O=C(c1c2c(N3CCOCC3)ncnc2n2ccccc12)N1CCCC1	2.92%	10.85%
O=C(c1ccc(=O)[nH]n1)N1CC(c2nc(Cc3ccccc3)no2)C1	14.29%	0.8451%
Cc1ccccc1CN(C)Cc1nc2c(cnn2C)c(=O)[nH]1	10.43%	26.22%
CN1Cc2c(C(=O)NC3CCCCC3)ncn2-c2ccccc2S1(=O)=O.O=C(O)C(F)(F)F	-	0.2869%
Cc1ccc(CN2CCCn3nnc(COCCN(C)C)c3C2)s1	13.19%	-
[H][C@@]12CCN(C(=O)c3cnccn3)C[C@@]1([H])O[C@H](C)C2	-	2.671%
CN1CCNC(Cc2ccc(-c3cccs3)cc2)C1=O (stereo not drawn)	10.29%	0.1861%
CCCc1nc(C[S+]([O-])Cc2cn3cccc(C)c3n2)no1 (stereo not drawn)	21.24%	-32.64%
CN1CCCC1c1ccc(C(=O)Nc2c3c(nn2C)CCC3)s1 (stereo not drawn)	13.35%	6.248%
CC1(Cc2ccc3c(c2)OCO3)CCCN(S(=O)(=O)N2CCOCC2)C1 (stereo not drawn)	8.014%	-12.78%
Cc1nccn1CC1CCCN1S(=O)(=O)Cc1cccc(C#N)c1 (stereo not drawn)	4.217%	-13.94%
COc1ccc2c(c1)OCC(C(=O)NCc1ncc3c(n1)CCC3)C2 (stereo not drawn)	9.756%	1.186%
Cc1nn(C)c(C)c1CCC(=O)N1CC(c2cccnc2)C1	4.963%	19.55%
Cn1ncc2c(NC3CCCN(C(=O)C4CC4)C3)nc(C(C)(C)C)nc21 (stereo not drawn)	5.497%	-2.001%
Nc1nnc(SCC(=O)NCC(O)c2ccccc2)s1 (stereo not drawn)	6.597%	4.095%
CC(=O)N1CCOC(c2c(C(=O)O)sc3ccccc23)C1 (stereo not drawn)	16.46%	-11.07%
CCCNC(=O)Cn1cc(C#N)c(=O)c2cc(Br)ccc21	15.84%	4.762%
CC(C)Nc1ncnc2c1CCN(C(=O)NCc1cccnc1)CC2.O=C(O)C(F)(F)F	-	-4.219%
Cc1noc(C)c1CN1CCO[C@H]2CNC[C@H]21	2.146%	-
CCN(C(=O)CN(Cc1cccc(O)c1)C1CCC(O)CC1)C1CC1 (stereo not drawn)	13.59%	1.489%
Cc1cccc(C(=O)NCC2CCS(=O)(=O)C2)n1 (stereo not drawn)	9.429%	19.55%
CCc1csc(CNc2cc(C)nc(-c3cccnc3)n2)n1	21.59%	15.87%
CN(C)C(=O)c1n[nH]c2c1CCN(Cc1nccs1)C2	-5.155%	-22.26%
Cc1nc(CN2CCCC(CCc3c(F)cccc3F)C2)c[nH]1 (stereo not drawn)	10.37%	2.739%
Cc1nccc(N[C@H]2CN(CCS(C)(=O)=O)C[C@@H]2C2CC2)n1	3.922%	-35.26%
FC1(F)CCN(Cc2ccncc2)CC12CCN(c1cnccn1)C2 (stereo not drawn)	12.58%	-
CCn1cnnc1CNC(=O)NC(c1ccc(OC)cc1)C1CC1 (stereo not drawn)	13.25%	-3.97%
O=S(=O)(N1CCOCC1)N1CCc2sccc2C1	9.964%	-9.1%
CC(C)(O)CSCCNC(=O)c1cc(F)ccc1F	2.957%	-29.43%
CC1=CC(C)(C)N(CN2C(=O)c3ccccc3C2=O)c2ccc(C)cc21	5.128%	-13.66%
COc1ncccc1CN1Cc2nccn2CC(CN2CCCC2)C1 (stereo not drawn)	12.99%	-0.6537%
[H][C@@]12CS(=O)(=O)C[C@]1([H])N(C(=O)c1cc(C(C)C)no1)CCN2C(=O)C(C)C	-	6.58%
O=C(CCc1nc(Cl)n[nH]1)N1C[C@@H](CN2CCCCC2)[C@@H](CO)C1	12.88%	-30.27%
O=C(O)C(F)(F)F.[H][C@@]12CN(C(=O)c3ccccc3C)C[C@]1([H])OCCN2c1ncccn1	-	-16.98%
CN(C)C[C@H]1OC[C@@H]2CN(C(=O)NCc3cccnc3)CC[C@@H]21	-1.754%	-
N#CC1(C(=O)N2CCCN(c3nccs3)CC2)CCCC1	19.13%	-20.58%
COCCN1CCC(NCc2cccc(F)c2)C1 (stereo not drawn)	4.453%	-31.15%
COCC(=O)N1CCCC(C(=O)NCc2cc(CC(C)C)on2)C1 (stereo not drawn)	-0.3472%	16%
Cc1ccc(N2CCCC3(COCCN(c4ncccn4)C3)C2)nn1 (stereo not drawn)	12.88%	-
CC(=O)N1CCC(N2CCC(c3nc(C)cc(C)n3)C2)CC1.O=CO (stereo not drawn)	-	13.7%
CC1CN(C(=O)c2ccc(=O)n(C)c2)c2ccccc2NC1=O (stereo not drawn)	12.01%	6.822%
[H][C@]12CC[C@@]3(N=C(CC)N(CC)C3=O)[C@@]1([H])CN(C(=O)Nc1ccccc1)C2	-	-18.05%
Cc1ccc(-c2n[nH]cc2CNCC2CCN(CC(F)(F)F)C2)o1 (stereo not drawn)	9.946%	-
CC(C)c1ncc2c(n1)CN(Cc1cccc3c1OCCO3)CC2	19.78%	26.24%
CCC(=O)N1CCCC(Cn2cc(-c3ccc(F)cc3)nn2)C1 (stereo not drawn)	13.2%	11.23%
CNC(=O)NC(=O)CN1CCN(CC(F)(F)F)CC1(C)C	13.06%	-7.185%
Cc1ccc(CN2CCOC3(CCN(C(=O)C4CCOC4)CC3)C2)cc1 (stereo not drawn)	14.19%	-
CO[C@H]1CN(C(=O)c2ccc3oc(C)cc3c2)CC[C@@]12CCCO2	5.822%	0.7366%
CCS(=O)(=O)N1CCc2ncnc(OC)c2CC1	11.42%	-18.2%
Cc1ccc(N(C)S(=O)(=O)c2cc(C(=O)O)cs2)cc1	5.698%	-17.47%
Cc1nc(CN(C)c2nccc(N(C)C)n2)cs1	3.621%	-2.557%
CC(=O)N1CCN(C(=O)CN2CCN(c3cccc(C)c3)CC2)CC1	8.511%	5.964%
COCc1nc(CNC(=O)c2cc(C)c(C)[nH]c2=O)no1	-4.469%	-17.73%
Cc1ccc(S(=O)(=O)N2CCN(CCCO)CC2)s1	14.61%	5.386%
CC(C1CCN(Cc2cnn(C)c2C2CC2)CC1)N1CCN(C)CC1 (stereo not drawn)	18.09%	7.465%
c1cc(C2CCN(Cc3nc(-c4ccsc4)no3)CC2)[nH]n1	15.05%	-32.21%
CC[C@@H](C)[C@H](NC(=O)CCn1cc(C(C)=O)c2ccccc21)C(=O)O	10.59%	8.848%
O=C(CCCn1cncn1)NC1(c2cccc(Br)c2)CC1	4.969%	-4.053%
Cc1nc(C)n(CC2CCCN2CC(=O)N(C)Cc2ccc(C)o2)n1 (stereo not drawn)	13.59%	-16.55%
O=C(CC1CCc2ccccc21)NCCSc1ccccn1 (stereo not drawn)	2.419%	-11.5%
COc1cc(N2CCC3(CC2)OCC(=O)NC3C)ncn1 (stereo not drawn)	14.84%	5.736%
Cc1nc(C)n(CC2CCCN2Cc2cc(C)on2)n1 (stereo not drawn)	9.028%	0.6181%
[H][C@]12CCN(C(=O)c3cc[nH]n3)CC[C@@]1([H])S(=O)(=O)N(Cc1cccnc1)C2	-	-21.47%
CSCCC(NC(N)=O)C(=O)N1CCC(Cc2ccccc2)CC1 (stereo not drawn)	5.398%	-12.51%
CN1CC=C(c2noc(CCC(=O)N3CCc4ccccc4C3)n2)CC1	17.49%	-23.74%
CCNC(=O)c1ccc(NC2CCOC3(CCCC3)C2)nn1 (stereo not drawn)	-0.838%	-13.25%
O=C(O)C(F)(F)F.O=C(O)C(F)(F)F.[H][C@@]12CCN(Cc3ccsc3)C[C@]1([H])[C@@H](CNc1ncccn1)OC2	-	-8.582%
O=C(C1CC1)N1CCN(C(=O)CSc2ccccn2)[C@H]2CS(=O)(=O)C[C@H]21	11.98%	-
C[C@H]1CN(Cc2cccc(F)c2)C[C@@]12CCN(CC(=O)N(C)C)C2=O.O=C(O)C(F)(F)F	-	-2.321%
CN(C)C(CNC(=O)CCNC(=O)OCC(F)(F)F)c1ccsc1 (stereo not drawn)	14.63%	-0.5434%
Cc1c(C(=O)NCC(C)C)nnn1-c1cccc2c1CCN(CCO)C2	1.592%	2.835%
O=C(NCc1nncn1C1CC1)C1(c2ccccc2)CCOCC1	5.442%	2.029%
c1ccc(-c2cc(CN3CCCCCC3c3ccco3)on2)nc1 (stereo not drawn)	18.77%	17.62%
C[C@@H]1CN(C(=O)C2CCOCC2)C[C@]12CCN(c1cccnc1)C2=O.O=C(O)C(F)(F)F	-	-11.39%
CCN(CCNC(=O)c1cccc(C)c1C)C1CC1	23.93%	-8.016%
O=C(NCC1(N2CCOCC2)CCSC1)Nc1ccccn1 (stereo not drawn)	11.96%	-27.07%
CCOC(=O)CNC(=O)NCc1cccn1Cc1ccccc1F	-1.749%	8.628%
Cc1nc(CCCNC(=O)Nc2ccc(F)cc2F)n[nH]1	18.92%	14.11%
CC(C)CCN(C(=O)c1cc2c([nH]c1=O)CCCC2=O)C1CC1	11.68%	-7.14%
[H][C@]12CN(CCc3cccc(F)c3)CC[C@@]1(O)CCN(S(=O)(=O)N(C)C)C2	-	-1.685%
CC(C)c1cc(C2CCN(C(=O)Cn3cncn3)CC2)[nH]n1	-4.878%	-12.25%
CCN(C)S(=O)(=O)N1CCC(C(O)c2ccc(Cl)cc2)CC1 (stereo not drawn)	15.5%	1.989%
COc1cc(NC(=O)c2nc3ccccc3n(C)c2=O)cc(OC)c1	5.634%	16.1%

For reference, 9 entries once more:

Compound,LdMetRS,Mtb heat-shock
CCCc1nc(C[S+]([O-])Cc2cn3cccc(C)c3n2)no1 (stereo not drawn),21.24%,-32.64%
[H][C@]12CC[C@@]3(N=C(CC)N(CC)C3=O)[C@@]1([H])CN(C(=O)Nc1ccccc1)C2,-,-18.05%
CC(C)Nc1ncnc2c1CCN(C(=O)NCc1cccnc1)CC2.O=C(O)C(F)(F)F,-,-4.219%
O=C(CC1CCc2ccccc21)NCCSc1ccccn1 (stereo not drawn),2.419%,-11.5%
[H][C@@]12CS(=O)(=O)C[C@]1([H])N(C(=O)c1cc(C(C)C)no1)CCN2C(=O)C(C)C,-,6.58%
COCC(=O)N1CCCC(C(=O)NCc2cc(CC(C)C)on2)C1 (stereo not drawn),-0.3472%,16%
Cc1ccc(CN2CCOC3(CCN(C(=O)C4CCOC4)CC3)C2)cc1 (stereo not drawn),14.19%,-
c1ccc(-c2cc(CN3CCCCCC3c3ccco3)on2)nc1 (stereo not drawn),18.77%,17.62%
CCN(C)S(=O)(=O)N1CCC(C(O)c2ccc(Cl)cc2)CC1 (stereo not drawn),15.5%,1.989%